Data taken from patent US10106757B2, “Ionic liquid, lubricant, and magnetic recording medium” (DEXERIALS CORPORATION, priority 2016, dated 2018).

Tests used:
[1] = Tape durability test: coefficient of friction after shuttle run of 100 times; conditions: for Coefficient of friction after 100 runs after heating test: after heating 10 minutes at 100° C.
[2] = Tape durability test: still durability; conditions: for Still durability after heating test: after heating 10 minutes at 100° C.
[3] = Disk durability test (CSS durability); conditions: 25° C., 60% RH; for CSS durability after heating: after heating test 3 minutes at 200° C.; for CSS durability: number of CSS until coefficient of friction greater than 1.0

For `CCCCCCCCCCCCn1cc[n+](CCCCCCCCCCCC)c1CCCCCCCCCCC.O=S(=O)([N-]S(=O)(=O)C(F)(F)C(F)(F)C(F)(F)C(F)(F)F)C(F)(F)C(F)(F)C(F)(F)C(F)(F)F` [Ex. 2A, bis(nonafluorobutanesulfonyl)imide-1,3-didodecyl-2-undecylimidazolium], the “Coefficient of friction after 100 runs” value ([1]; 40° C., 90% RH) was 0.22, the “Coefficient of friction after 100 runs after heating test” value (“Coefficient … after heating test” below) ([1]; 40° C., 90% RH) was 0.23 and the “Coefficient of friction after 100 runs” value ([1]; −5° C.) was 0.21. For the same molecule, the “Coefficient … after heating test” value ([1]; −5° C.) was 0.22, the Still durability ([2]; 40° C., 30% RH) was greater than 60 min and the “Still durability after heating test” value ([2]; 40° C., 30% RH) was greater than 60 min. The Still durability ([2]; −5° C.) was greater than 60 min, the “Still durability after heating test” value ([2]; −5° C.) was greater than 60 min and the “CSS durability after heating” value [3] was >50,000 times. For the same molecule, the CSS durability [3] was >50,000 times.

For “nonafluorobutanesulfonic acid-2-heptadecylimidazole salt [Comp. Ex. 3A, reference compound]”, the “Coefficient of friction after 100 runs” value ([1]; 40° C., 90% RH) was 0.20, the “Coefficient … after heating test” value ([1]; 40° C., 90% RH) was 0.2 and the “Coefficient of friction after 100 runs” value ([1]; −5° C.) was 0.18. For the same molecule, the “Coefficient … after heating test” value ([1]; −5° C.) was 0.2, the Still durability ([2]; 40° C., 30% RH) was greater than 60 min and the “Still durability after heating test” value ([2]; 40° C., 30% RH) was greater than 60 min. The Still durability ([2]; −5° C.) was greater than 60 min, the “Still durability after heating test” value ([2]; −5° C.) was greater than 60 min and the “CSS durability after heating” value [3] was >50,000 times. For the same molecule, the CSS durability [3] was >50,000 times.

In the case of “nonafluorobutanesulfonic acid-1-octadecylimidazolium [Comp. Ex. 1A, reference compound]”, the “Coefficient … after heating test” value ([1]; 40° C., 90% RH) is reported as 0.2, the “Coefficient … after heating test” value ([1]; −5° C.) is reported as 0.2 and the Still durability ([2]; 40° C., 30% RH) is reported as greater than 60 min. The “Still durability after heating test” value ([2]; 40° C., 30% RH) was greater than 60 min, the Still durability ([2]; −5° C.) was greater than 60 min and the “Still durability after heating test” value ([2]; −5° C.) was greater than 60 min. For the same molecule, the “CSS durability after heating” value [3] was >50,000 times and the CSS durability [3] was >50,000 times.

In the case of “pentadecafluorooctanoic acid octadecyl ammonium salt [pentadecafluorooctanoic acid octadecyl ammonium salt]”, the “CSS durability after heating” value [3] is reported as 891 times and the CSS durability ([3]; ammonium salt) is reported as “greater than 50,000 times”.

With `CCCCCCCCCCCCCCCCCC[n+]1ccn(CCCC)c1.O=S1(=O)[N-]S(=O)(=O)C(F)(F)C(F)(F)C1(F)F` [Comp. Ex. 2A, hexafluorocyclopropane-1,3-bis(sulfonyl)imide-1-butyl-3-n-octadecylimidazolium, reference compound] the “Coefficient … after heating test” value ([1]; 40° C., 90% RH) was 0.3, the “Coefficient … after heating test” value ([1]; −5° C.) was 0.3 and the Still durability ([2]; 40° C., 30% RH) was greater than 60 min. The “Still durability after heating test” value ([2]; 40° C., 30% RH) was greater than 60 min, the Still durability ([2]; −5° C.) was greater than 60 min and the “Still durability after heating test” value ([2]; −5° C.) was greater than 60 min. The “CSS durability after heating” value [3] was >50,000 times and the CSS durability [3] was >50,000 times.

For “pentadecafluorooctanoic acid octadecyl ammonium salt [Comp. Ex. 4A, reference compound]”, the “Coefficient of friction after 100 runs” value ([1]; 40° C., 90% RH) was 0.25, the “Coefficient … after heating test” value ([1]; 40° C., 90% RH) was 0.5 and the “Coefficient of friction after 100 runs” value ([1]; −5° C.) was 0.21. For the same molecule, the “Coefficient … after heating test” value ([1]; −5° C.) was 0.5, the Still durability ([2]; 40° C., 30% RH) was greater than 60 min and the “Still durability after heating test” value ([2]; 40° C., 30% RH) was 16 min. For the same molecule, the Still durability ([2]; −5° C.) was greater than 60 min, the “Still durability after heating test” value ([2]; −5° C.) was 12 min and the “CSS durability after heating” value [3] was 891 times. The CSS durability ([3]; ammonium salt) was >50,000 times.

For `CCCCCCCCCCCCCCCCCCn1cc[n+](CCCCCCCCCCCCCCCCCC)c1CCCCCCCCCCCCCCCCC.O=S(=O)([N-]S(=O)(=O)C(F)(F)C(F)(F)C(F)(F)C(F)(F)F)C(F)(F)C(F)(F)C(F)(F)C(F)(F)F` [Ex. 4A, bis(nonafluorobutanesulfonyl)imide-1,3-dioctadecyl-2-heptadecylimidazolium], the “Coefficient of friction after 100 runs” value ([1]; 40° C., 90% RH) was 0.19, the “Coefficient … after heating test” value ([1]; 40° C., 90% RH) was 0.19 and the “Coefficient of friction after 100 runs” value ([1]; −5° C.) was 0.18. For the same molecule, the “Coefficient … after heating test” value ([1]; −5° C.) was 0.19, the Still durability ([2]; 40° C., 30% RH) was greater than 60 min and the “Still durability after heating test” value ([2]; 40° C., 30% RH) was greater than 60 min. The Still durability ([2]; −5° C.) was greater than 60 min, the “Still durability after heating test” value ([2]; −5° C.) was greater than 60 min and the “CSS durability after heating” value [3] was >50,000 times. The CSS durability [3] was >50,000 times.

With “nonafluorobutanesulfonic acid-1,3-didodecyl-2-undecylimidazolium [Ex. 1A]” the “Coefficient of friction after 100 runs” value ([1]; 40° C., 90% RH) was 0.21, the “Coefficient … after heating test” value ([1]; 40° C., 90% RH) was 0.22 and the “Coefficient of friction after 100 runs” value ([1]; −5° C.) was 0.20. The “Coefficient … after heating test” value ([1]; −5° C.) was 0.21, the Still durability ([2]; 40° C., 30% RH) was greater than 60 min and the “Still durability after heating test” value ([2]; 40° C., 30% RH) was greater than 60 min. For the same molecule, the Still durability ([2]; −5° C.) was greater than 60 min, the “Still durability after heating test” value ([2]; −5° C.) was greater than 60 min and the “CSS durability after heating” value [3] was >50,000 times. For the same molecule, the CSS durability [3] was >50,000 times.

With “nonafluorobutanesulfonic acid-1,3-dioctadecyl-2-heptadecylimidazolium [Ex. 3A]” the “Coefficient of friction after 100 runs” value ([1]; 40° C., 90% RH) was 0.18, the “Coefficient … after heating test” value ([1]; 40° C., 90% RH) was 0.18 and the “Coefficient of friction after 100 runs” value ([1]; −5° C.) was 0.17. For the same molecule, the “Coefficient … after heating test” value ([1]; −5° C.) was 0.18, the Still durability ([2]; 40° C., 30% RH) was greater than 60 min and the “Still durability after heating test” value ([2]; 40° C., 30% RH) was greater than 60 min. The Still durability ([2]; −5° C.) was greater than 60 min, the “Still durability after heating test” value ([2]; −5° C.) was greater than 60 min and the “CSS durability after heating” value [3] was >50,000 times. For the same molecule, the CSS durability [3] was >50,000 times.
